Data as given in PubChem BioAssay AID652259 (Drosophila RNAi Screening Center, 2013)
Aim: 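Identify new Wingless signalling regulators in fly cells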 (primary screen). Cells: Drosophila clone 8 imaginal disc epithelial cells. Knock-down reagent: long dsRNA against Drosophila genes. Treatment: pathway stimulated by co-transfected Wingless expression plasmid. Detection: 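Dual luciferase reads per well after Wingless plasmid stimulation: reporter firefly light and Renilla control light; activity is firefly divided by Renilla, a ratio not deposited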. Scale: firefly reporter light: higher = more Wg reporter light, before normalisation; Renilla control light: higher = more transfected or surviving cells. Hit rule: 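Strong candidates differ from their plate mean by at least two out of four per-plate statistical tests; weak candidates meet just one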. Meaning of the calls: active = candidate regulator (raises or lowers reporter); inactive = not a candidate.
The deposit covers about 22,000 reagents; shown is an unselected part of those with a known target gene and a result. In the full data, 233 (1.1%) got an active call. 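Light values are raw, unnormalised plate reads; the ratio scores behind the reporter calls were not deposited.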 A plus sign joins genes that one reagent is predicted to hit. Not given: the amount of reagent, the time to read-out, the dose of the treatment.

| gene knocked down | DRSC id | reporter change call, replicate 1 | firefly reporter light, replicate 1 | firefly reporter light, replicate 2 | Renilla control light, replicate 1 | Renilla control light, replicate 2 | call |
| --- | --- | --- | --- | --- | --- | --- | --- |
| CG31272 | DRSC16058 | – | 13905 | – | 2964 | – | inactive |
| Dlc90F (Dynein light chain 90F) | DRSC16649 | – | 2072 | 5440 | 1142 | 1899 | inactive |
| Sec31 (Secretory 31) | DRSC07131 | – | 6026 | – | 2068 | – | inactive |
| CG42507 + Trl | DRSC09325 | – | 2953 | – | 1404 | – | inactive |
| CG42507 + Trl | DRSC11308 | Wg reporter activity raised | 4268 | – | 273 | – | active |
| CG34347 | DRSC14047 | – | 3019 | – | 880 | – | inactive |
| CG34347 | DRSC14305 | – | 9675 | – | 2292 | – | inactive |
| CG34347 | DRSC15104 | – | 9493 | – | 1879 | – | inactive |
| CG34347 | DRSC15105 | – | 2456 | – | 298 | – | inactive |
| ChT (Choline transporter) | DRSC16296 | – | 1785 | 5049 | 1091 | 743 | inactive |
| CG18132 | DRSC00518 | – | 2598 | 5008 | 1048 | 1618 | inactive |
| Acat2 (Acetyl-CoA acetyltransferase 2) | DRSC08630 | – | 9792 | – | 4122 | – | inactive |
| Fcp1 (TFIIF-interacting CTD phosphatase) | DRSC04121 | – | 12252 | – | 3466 | – | inactive |
| TwdlY (TweedleY) | DRSC19153 | – | 5131 | 7.38e5 | 1874 | 3.18e5 | inactive |
| pirk (poor Imd response upon knock-in) | DRSC04269 | – | 2755 | 9925 | 736 | 2696 | inactive |
| CG14110 | DRSC10113 | – | 9749 | – | 3362 | – | inactive |
| CG32006 | DRSC21768 | – | 4.83e5 | 3.33e5 | 2.70e5 | 1.29e5 | inactive |
| lncRNA:CR43372 (long non-coding RNA:CR43372) | DRSC15041 | – | 36043 | – | 7558 | – | inactive |
| knk (knickkopf) | DRSC15993 | – | 16465 | – | 4274 | – | inactive |
| ppk9 (pickpocket 9) | DRSC04134 | – | 2947 | 6601 | 1014 | 2657 | inactive |
| ppk9 (pickpocket 9) | DRSC04135 | – | 3645 | 8188 | 1136 | 2587 | inactive |
| Drp1 (Dynamin related protein 1) | DRSC00574 | – | 9354 | – | 3394 | – | inactive |
| Scm (Sex comb on midleg) | DRSC16853 | – | 14080 | – | 3680 | – | inactive |
| mira (miranda) | DRSC16998 | – | 2896 | 6771 | 1879 | 2378 | inactive |
| ND-B14.5A (NADH dehydrogenase (ubiquinone) B14.5 A subunit) | DRSC18500 | – | 23495 | – | 24523 | – | inactive |
| MICAL-like | DRSC09829 | – | 4816 | – | 1671 | – | inactive |
| Mrp5 (Multidrug resistance protein 5) | DRSC15597 | – | 11644 | – | 3705 | – | inactive |
| Mrp5 (Multidrug resistance protein 5) | DRSC15598 | – | 21107 | – | 5363 | – | inactive |
| AP-1-2beta (Adaptor Protein complex 1/2, beta subunit) | DRSC19336 | – | 27257 | – | 12640 | – | inactive |
| CG9114 | DRSC20155 | – | 23536 | – | 10981 | – | inactive |
| CG8516 | DRSC16437 | – | 10912 | – | 3674 | – | inactive |
| Spn28Da (Serpin 28Da) | DRSC02162 | – | 1324 | 4017 | 435 | 2025 | inactive |
| His1:CG33816 + His1:CG33828 + His1:CG33819 + 21 more | DRSC21266 | – | 24262 | – | 7676 | – | inactive |
| CG32119 | DRSC09248 | – | 5475 | – | 2320 | – | inactive |
| CG32119 | DRSC21462 | – | 5.17e5 | 6.86e5 | 2.32e5 | 1.95e5 | inactive |
| CG14491 | DRSC06462 | Wg reporter activity raised | 6626 | – | 2864 | – | inactive |
| Traf4 (TNF-receptor-associated factor 4) | DRSC00445 | – | 3592 | 4924 | 1266 | 1657 | inactive |
| Traf4 (TNF-receptor-associated factor 4) | DRSC00794 | – | 10941 | – | 5612 | – | inactive |
| CG15317 | DRSC18005 | – | 21584 | – | 10443 | – | inactive |
| CG15128 | DRSC06550 | – | 5088 | – | 1558 | – | inactive |
| Reck (Reversion-inducing-cysteine-rich protein with kazal motifs) | DRSC10504 | – | 5601 | – | 2673 | – | inactive |
| Reck (Reversion-inducing-cysteine-rich protein with kazal motifs) | DRSC10505 | – | 8477 | – | 2208 | – | inactive |
| Obp69a (Odorant-binding protein 69a) | DRSC11247 | – | 3132 | – | 872 | – | inactive |
| CG5282 | DRSC11775 | – | 7602 | – | 1923 | – | inactive |
| kl-2 (male fertility factor kl2) | DRSC21136 | – | 12363 | – | 6676 | – | inactive |
| CG6527 | DRSC10659 | – | 8032 | – | 4466 | – | inactive |
| Coq4 + frc | DRSC10381 | – | 5896 | – | 2692 | – | inactive |
| Coq4 + frc | DRSC10382 | – | 6896 | – | 3810 | – | inactive |
| CG31668 | DRSC22584 | – | 6.38e5 | 6.84e5 | 2.59e5 | 1.62e5 | inactive |

Ordered by “firefly reporter light, replicate 1” (high to low): some entries from above
| gene knocked down | DRSC id | reporter change call, replicate 1 | firefly reporter light, replicate 1 | firefly reporter light, replicate 2 | Renilla control light, replicate 1 | Renilla control light, replicate 2 | call |
| --- | --- | --- | --- | --- | --- | --- | --- |
| Fcp1 (TFIIF-interacting CTD phosphatase) | DRSC04121 | – | 12252 | – | 3466 | – | inactive |
| Acat2 (Acetyl-CoA acetyltransferase 2) | DRSC08630 | – | 9792 | – | 4122 | – | inactive |
| TwdlY (TweedleY) | DRSC19153 | – | 5131 | 7.38e5 | 1874 | 3.18e5 | inactive |
| pirk (poor Imd response upon knock-in) | DRSC04269 | – | 2755 | 9925 | 736 | 2696 | inactive |
| CG18132 | DRSC00518 | – | 2598 | 5008 | 1048 | 1618 | inactive |
